Results deposited as PubChem BioAssay AID743121 (NCATS, 2013).
The whole screen tested about 26,000 reagents; this is a part drawn at random. Of all reagents, 167 (0.63%) got an active call. 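Calls are per gene from RSA p-values that are not deposited; an individual active-marked siRNA can sensitise only weakly.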 Entries without a mark were called inactive. Reagents against one gene are numbered here. Further read-outs or replicates are left out here.

Test: 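Partners whose loss is lethal together with topoisomerase I blockade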 (primary screen)
Cell system: MDA-MB-231 cells, a human breast cancer line
Knock-down reagent: single siRNA against human genes, 20 nM siRNA (0.8 pmol per well)
Duration: 120 h (drug added 48 h after transfection, read 72 h later)
Conditions: camptothecin 20 nM (about EC30) for 72 h; vehicle 0.1% DMSO in parallel plates
Measurement: 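Cell viability by ATP luminescence (CellTiter-Glo) as % of non-targeting siRNA wells, and the log2 ratio of viability without drug over viability with camptothecin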
Direction: log2 vehicle/camptothecin viability: higher = stronger sensitisation to camptothecin; viability with camptothecin: higher = more viable cells
Hit rule: 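Each gene scored by redundant siRNA activity (RSA) over its individual siRNA ratios; a gene is called active at p < 0.001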

After knock-down of GAN (gigaxonin) #1, the screen gave log2 vehicle/camptothecin viability -0.249; viability with camptothecin (% of control) = 101.
Against GAN (gigaxonin) #2, the values are log2 vehicle/camptothecin viability -0.00508; viability with camptothecin (% of control) = 42.7.
GAN (gigaxonin) #3 gave log2 vehicle/camptothecin viability 0.203; viability with camptothecin (% of control) = 84.4.
With knock-down of GAN (gigaxonin) #4, the screen gave log2 vehicle/camptothecin viability -0.0771; viability with camptothecin (% of control) = 117.
Knock-down of APOA1 (apolipoprotein A1) #1 gave: log2 vehicle/camptothecin viability -0.158; viability with camptothecin (% of control) = 108.
Silencing of APOA1 (apolipoprotein A1) #2 resulted in: log2 vehicle/camptothecin viability -0.0886; viability with camptothecin (% of control) = 90.6.
With knock-down of APOA1 (apolipoprotein A1) #3, the screen gave log2 vehicle/camptothecin viability 0.462; viability with camptothecin (% of control) = 17.8.
After knock-down of APOA1 (apolipoprotein A1) #4, the record shows log2 vehicle/camptothecin viability 0.0698; viability with camptothecin (% of control) = 50.7.

Sorted by “log2 vehicle/camptothecin viability” (lowest first): 2 of the entries above.
APOA1 (apolipoprotein A1) #2 — log2 vehicle/camptothecin viability: -0.0886; viability with camptothecin (% of control): 90.6
APOA1 (apolipoprotein A1) #3 — log2 vehicle/camptothecin viability: 0.462; viability with camptothecin (% of control): 17.8

Further records follow.
For VPS39 (VPS39 subunit of HOPS complex) #1, the entry reads log2 vehicle/camptothecin viability -0.279; viability with camptothecin (% of control) = 88.5.
After knock-down of VPS39 (VPS39 subunit of HOPS complex) #2, the record shows log2 vehicle/camptothecin viability 0.637; viability with camptothecin (% of control) = 37.2.
Silencing of VPS39 (VPS39 subunit of HOPS complex) #3 resulted in: log2 vehicle/camptothecin viability -0.347; viability with camptothecin (% of control) = 68.1.
Knock-down of PPP2R1A (protein phosphatase 2 scaffold subunit Aalpha) #1 gave: log2 vehicle/camptothecin viability 0.631 (active); viability with camptothecin (% of control) = 36.7.
Depletion of PPP2R1A (protein phosphatase 2 scaffold subunit Aalpha) #2 resulted in: log2 vehicle/camptothecin viability 0.753 (active); viability with camptothecin (% of control) = 30.2.
PPP2R1A (protein phosphatase 2 scaffold subunit Aalpha) #3 gave log2 vehicle/camptothecin viability 0.0976 (active); viability with camptothecin (% of control) = 50.7.
Knock-down of PPP2R1A (protein phosphatase 2 scaffold subunit Aalpha) #4 gave: log2 vehicle/camptothecin viability 0.595 (active); viability with camptothecin (% of control) = 46.3.
